Experimental data taken from paper PMC7819943, “Rice protein-binding microarrays: a tool to detect cis-acting elements near promoter regions in rice”.
Some of the results follow.

target: T1, OsSMF1 (Oryza sativa, UniProt Q6ZLB0 1-436); experiment: protein-binding microarray (RPBM); PBS, 2% BSA, 51.3 ng/ul salmon testes DNA, 50 uM zinc acetate, 200 nM TF, 25 C, 1 h; high values mean tight binding; settings: protein: recombinant; tags: N-terminal polyhistidine and DsRed monomer fusion (pET32a); chain copies: 2; label: CyDye5-dUTP incorporated in the synthesized complementary strand; 3' TTTTT single-stranded linker to array surface; dsDNA, one strand shown
T1 sequence: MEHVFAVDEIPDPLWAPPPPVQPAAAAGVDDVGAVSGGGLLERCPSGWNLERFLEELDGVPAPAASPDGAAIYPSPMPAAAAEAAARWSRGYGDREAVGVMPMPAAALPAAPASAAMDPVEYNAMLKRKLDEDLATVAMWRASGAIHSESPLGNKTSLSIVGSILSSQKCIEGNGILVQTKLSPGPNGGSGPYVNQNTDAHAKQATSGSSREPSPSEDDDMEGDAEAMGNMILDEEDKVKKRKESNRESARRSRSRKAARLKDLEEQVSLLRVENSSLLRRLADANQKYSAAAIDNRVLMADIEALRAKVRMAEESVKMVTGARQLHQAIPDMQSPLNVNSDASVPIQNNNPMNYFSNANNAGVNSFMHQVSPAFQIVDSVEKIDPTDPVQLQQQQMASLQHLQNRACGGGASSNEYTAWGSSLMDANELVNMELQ
Procedure, shortened: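 The binding signal for each feature is its fluorescence intensity in arbitrary units. An Axon 4000B scanner was used to read a custom Agilent array that had been made double-stranded with Cy5-dUTP primer extension, blocked with 2% BSA, incubated at 25 °C for 1 h with 200 nM protein in PBS, 2% BSA, salmon testes DNA and 50 µM zinc acetate, and washed. The protein was an N-terminal polyhistidine–DsRed transcription factor fusion from E. coli BL21-CodonPlus, purified on Ni–NTA.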

Sequence | binding signal
CTTAGCTCAACACTATATAGTACTGCATGCGTTTGATATACGGAGTCACCTAGTGCAG | 3870 fluorescence intensity (a.u.)
CATGCAGTGCAGCACAGTCACACGCTGATAATACGTCATACGGAGTCACCTAGTGCAG | 5680 fluorescence intensity (a.u.)
ATCCGGCGGCAGTTAGCTATGGTGGCATCGATGACGGCCACGGAGTCACCTAGTGCAG | 3200 fluorescence intensity (a.u.)
CCGCCACCACCCGTGCCCGCCGCATCCAGCTCATCTCCGTCGGAGTCACCTAGTGCAG | 5960 fluorescence intensity (a.u.)
AAAGGGGAACTTCAGGGCGTGACACCCGCTGCTCTTCTCTCGGAGTCACCTAGTGCAG | 3350 fluorescence intensity (a.u.)
ACGGCAAAATTTGCCACAGGACACGTAAAATACGTGTAATCGGAGTCACCTAGTGCAG | 5050 fluorescence intensity (a.u.)
CACGTGCATCTGTCAGTGACACATTACTACTACCACAACTCGGAGTCACCTAGTGCAG | 4680 fluorescence intensity (a.u.)
ATGACAGACAACCATGCAGTCCTGCAATGCAAAACGCATTCGGAGTCACCTAGTGCAG | 3230 fluorescence intensity (a.u.)
TTGCTCTGCAGCTCACAGGTCATGGCAAACTAATTAAATTCGGAGTCACCTAGTGCAG | 4230 fluorescence intensity (a.u.)
TGTTGGTGGGGTCCCGTACGTGTGGTTTACGCGTCCCGTTCGGAGTCACCTAGTGCAG | 3380 fluorescence intensity (a.u.)
GTGCAACCGAAGGCATGGATGAGGTCAGGATCATCCATCCCGGAGTCACCTAGTGCAG | 3320 fluorescence intensity (a.u.)
CTCCGCTTCGCGCCGTCGCTATCGTCGTCCGCATCGCCTCCGGAGTCACCTAGTGCAG | 3720 fluorescence intensity (a.u.)
TCAGTAGGCCAGTAGCTAGCTGCTGCCTTCACACATCAATCGGAGTCACCTAGTGCAG | 3160 fluorescence intensity (a.u.)
TTTCACACATGTCACGTGTAAGATCTTACAATGTAACTTACGGAGTCACCTAGTGCAG | 4210 fluorescence intensity (a.u.)
GCTTGGTGTTTGTGCTTGTTGTTGCGTTGCGTTTGCTTATCGGAGTCACCTAGTGCAG | 3590 fluorescence intensity (a.u.)
ACACTCTCGATGTATAGATTCACCCACGAGATGATGTGGCCGGAGTCACCTAGTGCAG | 6570 fluorescence intensity (a.u.)
GCAATAACACTTGTTATACCGATCGTATCCGACGTGGCTACGGAGTCACCTAGTGCAG | 13900 fluorescence intensity (a.u.)
GGGTGGTCGACGAGGACGTGGAGCGCCACGCGGTCCCCGGCGGAGTCACCTAGTGCAG | 7010 fluorescence intensity (a.u.)
CCCTCCCAAACCCTCGCGCGCGCTCTGCGGCTTCTCTCTCCGGAGTCACCTAGTGCAG | 12700 fluorescence intensity (a.u.)
CTAGCTTTGAGGTGGAGGTGGTGGTGGAGGAGGAGGAGGACGGAGTCACCTAGTGCAG | 3340 fluorescence intensity (a.u.)
GCGGCCTCGTCTACAACGCCGGCCCGCACTTCCACATCAACGGAGTCACCTAGTGCAG | 3470 fluorescence intensity (a.u.)
GCACACTGACACACAGTCACACACCATCCCGCTCTCTCCACGGAGTCACCTAGTGCAG | 5750 fluorescence intensity (a.u.)
CCAAAACCAGCAAGCCACAGCCTGCCATGTCATGTTTGTACGGAGTCACCTAGTGCAG | 9780 fluorescence intensity (a.u.)
CGTACGGCACCGAGTTATCGCCGCCAGGTCAGTTGGTTTACGGAGTCACCTAGTGCAG | 3690 fluorescence intensity (a.u.)
AAAATCATTCAGTTAAACATTATCCAACGCGGCATTACCCCGGAGTCACCTAGTGCAG | 5870 fluorescence intensity (a.u.)
CATCATGACATGTGTTATGAAGTGATGATGGGACCATTCCCGGAGTCACCTAGTGCAG | 4120 fluorescence intensity (a.u.)
ATGGCGGGCAATGCGGTTAGCTAATCAATGGCCACGCTGACGGAGTCACCTAGTGCAG | 3160 fluorescence intensity (a.u.)

Sequence | binding signal
ATTTGTCGTGACATCACATCGCCTGTGTCATGGCGATGACCGGAGTCACCTAGTGCAG | 5160 fluorescence intensity (a.u.)
CAAGAAGTATGTCATAGCTGAGTCATGATATGTATAACTCCGGAGTCACCTAGTGCAG | 14000 fluorescence intensity (a.u.)
TTCCTAGTTGTGCAGCAGATGTTTATTTCGTGTGACTGTGCGGAGTCACCTAGTGCAG | 4210 fluorescence intensity (a.u.)
GTCATTGTATTGACACTTCTAGTCAGCTTCAGCATGAAGGCGGAGTCACCTAGTGCAG | 17600 fluorescence intensity (a.u.)
GTGGGCGCCGCCGATGACGACGCGTCACGACCGAATAACCCGGAGTCACCTAGTGCAG | 5160 fluorescence intensity (a.u.)
TCGTTATCTCTAACGAGCTAAGATGCCAGCTCGGCTCGTTCGGAGTCACCTAGTGCAG | 3820 fluorescence intensity (a.u.)
GGCCCCGTCGACGCTGTGCACCAAACACAATAAAGACATGCGGAGTCACCTAGTGCAG | 3430 fluorescence intensity (a.u.)
TCCACTCGCTCTAGTTTGCCTCGTCCCCGCCGCCACCACACGGAGTCACCTAGTGCAG | 3400 fluorescence intensity (a.u.)
ATGTTTAGTTCCACGTCAAAATTGGAAGTTTGAAGAAATTCGGAGTCACCTAGTGCAG | 3980 fluorescence intensity (a.u.)
AGGCTCATACCATACGCTGTCATCACCGGCCAACACCACCCGGAGTCACCTAGTGCAG | 4240 fluorescence intensity (a.u.)
GTACCCTCAAAGCGTGTAGATTCACGGAGGATATTTAGTTCGGAGTCACCTAGTGCAG | 3800 fluorescence intensity (a.u.)
TAATTAAGTGTGTAAGCGTCGACGGTTTACGTGGAATTATCGGAGTCACCTAGTGCAG | 4240 fluorescence intensity (a.u.)
AGTGCCTCACCAGGTAGTGCATCGTCACCAGCGTCTCCACCGGAGTCACCTAGTGCAG | 5260 fluorescence intensity (a.u.)
GTGGTGTTGAAGGGGATGAGGTCGCCGACGGCGAGCGCGGCGGAGTCACCTAGTGCAG | 3600 fluorescence intensity (a.u.)
CTCCAGCCACCTCTCTCTCCCTCTCCCGTCACCGCCGACGCGGAGTCACCTAGTGCAG | 3960 fluorescence intensity (a.u.)
CAACCTCCGATTTCCAAATCCAGTTGTCTTCTTCTTCCCCCGGAGTCACCTAGTGCAG | 7150 fluorescence intensity (a.u.)
GCCAGTTGTTGCTTCTGGGATCATCGCGTGGCATCTCACGCGGAGTCACCTAGTGCAG | 5800 fluorescence intensity (a.u.)
CTAAGAAACGGAAAGAGAAAGATGAACTAACACGTGGGCCCGGAGTCACCTAGTGCAG | 6380 fluorescence intensity (a.u.)
CCCTCGCTCGCCGGGCGTCTCCGTCACGAACAAGCGCCGCCGGAGTCACCTAGTGCAG | 3940 fluorescence intensity (a.u.)
GTATAGGAATTTCAAGACGTGGAATCTCTTTGGGCTGTGTCGGAGTCACCTAGTGCAG | 6120 fluorescence intensity (a.u.)
TCGCCGCCGCGGCCGCCTCCACCTCATCATCTCCCACCTCCGGAGTCACCTAGTGCAG | 7900 fluorescence intensity (a.u.)
AGTCTTGACCCGTGTGCGTGTGTGATTCATTCCGCCGCAGCGGAGTCACCTAGTGCAG | 3350 fluorescence intensity (a.u.)
AATTTCTACTGTCATGCTTCCTTGTCCCATTACTACATTGCGGAGTCACCTAGTGCAG | 3900 fluorescence intensity (a.u.)
CAACATATTGTAGCCGCACACGTAGCATGCAGTCCTGGATCGGAGTCACCTAGTGCAG | 3820 fluorescence intensity (a.u.)
TACAGTATGTTGTGGAAGGCCTTTGAATTATATTGCATTACGGAGTCACCTAGTGCAG | 49000 fluorescence intensity (a.u.)
TGTAATGATTACATATGTGTGATGCTTTCACCATGCTAACCGGAGTCACCTAGTGCAG | 3330 fluorescence intensity (a.u.)
GCTAATTCATGGCCCGATTTGATGCTGCGGCATGTGCAGTCGGAGTCACCTAGTGCAG | 3670 fluorescence intensity (a.u.)

Copied from the list:
CTAAGAAACGGAAAGAGAAAGATGAACTAACACGTGGGCCCGGAGTCACCTAGTGCAG | binding signal: 6380 fluorescence intensity (a.u.)
CTCCAGCCACCTCTCTCTCCCTCTCCCGTCACCGCCGACGCGGAGTCACCTAGTGCAG | binding signal: 3960 fluorescence intensity (a.u.)

2 entries drawn at random from those above:
Sequence | binding signal
ATGGCGGGCAATGCGGTTAGCTAATCAATGGCCACGCTGACGGAGTCACCTAGTGCAG | 3160 fluorescence intensity (a.u.)
CGTACGGCACCGAGTTATCGCCGCCAGGTCAGTTGGTTTACGGAGTCACCTAGTGCAG | 3690 fluorescence intensity (a.u.)
